From PubChem BioAssay AID1347076 (National Center for Advancing Translational Sciences (NCATS), 2019)
About 13,000 (3.2%) of roughly 400,000 compounds were called active. The inconclusive results got no clear call from the source; some entries with a clear call stand among them for comparison. Calls come from the whole dose curve; as a rule, active = well fitted cell-killing curve with a large enough effect; inconclusive = small, poorly fitted or top-dose-only effect, or effect the other way; inactive = flat fitted curve, though single readings scatter. Potencies of inconclusive entries are doubtful fits and often do not repeat.

Assay: qHTS assay for MDR1-selective chemotherapeutics: Primary screen using the drug-selected MDR subline cells KB-V1; note: nearly all actives have a fitted effect of over 60% in size
Conditions: KB-V1 MDR cells viability, CellTiter-Glo, 72 h; activity change, negative = cytotoxicity: at 46.1 µM (top of the series)
Outline: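 Cells of the MDR subline KB-V1 are plated, dosed with compound at multiple concentrations, and incubated 72 h at 37 degrees C; CellTiter-Glo is then added and luminescence read after 10 min.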
% is set by controls: 0 for no effect and ±100 for the full control effect; potency is the fitted concentration of half-maximal effect.

Q: With CC(NC(=O)C1CCCN1C(=O)c1cccs1)c1ccc(Cl)cc1Cl (stereo not drawn) as the compound, how does the “activity change, negative = cytotoxicity” value read?
A: Its value is inactive: 0%.

Q: Which “activity change, negative = cytotoxicity” value does the source give for COc1ccc(NC(=O)C2CC(=O)N/C(=N/N=C/c3ccccc3)S2)cc1 (stereo not drawn) here?
A: Its value is inactive: 0%.

Q: Which activity change, negative = cytotoxicity does the source give for Cc1ccc(S(=O)(=O)N2CCCCC2)cc1NC(=O)[C@@H]1CCCN1C(=O)c1cccs1 here?
A: Its activity change, negative = cytotoxicity is inconclusive: -26.8%.

Q: Which “activity change, negative = cytotoxicity” value does the source give for COc1ccc(OC)c(NC(=O)N2c3ccccc3Sc3ccccc32)c1 here?
A: Its value is inactive: -19.2%.

Q: With Cc1ccc(CS/C(Nc2ccccc2C)=C(\C#N)C(N)=O)c(C)c1 as the compound, how does the Potency read?
A: Its Potency is inconclusive: 16.4 µM [cytotoxic, single point].

Q: With COCCNc1nc2c(c(=O)n(C)c(=O)n2C)n1CCCc1ccccc1 as the compound, how does the Potency read?
A: Its Potency is active: 16.4 µM.

Q: With CCNc1nc(SCCOc2ccc(C)cc2)nc(N(C)C)n1 as the compound, how does the Potency read?
A: Its Potency is inconclusive: 25.9 µM [cytotoxic, single point].

Q: With Cc1oc2ccc(O)cc2c1C(=O)c1ccccc1 as the compound, how does the Potency read?
A: Its Potency is inconclusive: 29.1 µM [rising, single point].

Q: Which Potency does the source give for Cc1cc(C(=O)Nc2ccc(N3CCOCC3)c(Cl)c2)c(C)o1 here?
A: Its Potency is inconclusive: 20.6 µM [cytotoxic, partial curve, poor fit].

Q: For c1coc(CN(Cc2ccco2)c2ncnc3c2oc2ccccc23)c1, which Potency is on record?
A: Its Potency is active: 16.4 µM.

Q: With O=C(COc1ccccc1[N+](=O)[O-])Nc1cccc(S(=O)(=O)N2CCCC2)c1 as the compound, how does the Potency read?
A: Its Potency is inconclusive: 18.4 µM [cytotoxic, single point].

Q: With Cc1ccc(N2C(=O)N(CC(=O)NC(N)=O)C(=O)C2C)cc1 (stereo not drawn) as the compound, how does the “activity change, negative = cytotoxicity” value read?
A: Its value is inactive: 1.04%.

Q: Which Potency does the source give for COCCCN(CC(=O)Nc1ccc(N2CCOCC2)cc1)S(=O)(=O)c1ccccc1 here?
A: The Potency was inconclusive: 29.1 µM [cytotoxic, single point].

Q: For N#Cc1ncc(Cc2ccccc2)nc1C#N, which “activity change, negative = cytotoxicity” value is on record?
A: The value was inactive: 19.2%.

Q: Which Potency does the source give for Cc1csc(NC(=O)CSc2nnc(-c3ccccc3)o2)n1 here?
A: Its Potency is inconclusive: 16.4 µM [cytotoxic, single point].

Q: Which “activity change, negative = cytotoxicity” value does the source give for CCOc1ccc(CCNC(=O)Cn2nnc(-c3ccc(C(F)(F)F)cc3)n2)cc1OCC here?
A: Its value is inactive: 11.3%.

Q: For CCCCn1c(NC(=O)c2ccc(Br)o2)c(S(=O)(=O)c2ccccc2)c2nc3ccccc3nc21, which Potency is on record?
A: The Potency was inconclusive: 35.5 µM [cytotoxic, single point].

Q: For COc1ccc(S(=O)(=O)N2CCN(c3ccc4nnc(-c5ccccc5)n4n3)CC2)cc1, which Potency is on record?
A: The Potency was inconclusive: 29.1 µM [cytotoxic, single point].

Q: Which Potency does the source give for COC(=O)c1cc(NS(=O)(=O)c2ccc(Cl)c(N3C(=O)c4ccc(C(=O)O)cc4C3=O)c2)cc(C(=O)OC)c1 here?
A: Its Potency is inconclusive: 2.31 µM [rising, partial curve, poor fit].

Q: With COc1ccc(-c2nc(N=Nc3ccc(O)cc3)n[nH]2)cc1 as the compound, how does the “activity change, negative = cytotoxicity” value read?
A: The value was inactive: 0%.

Q: For Cc1cc(C)cc(Nc2nc3ccccc3c(=O)[nH]2)c1, which activity change, negative = cytotoxicity is on record?
A: The activity change, negative = cytotoxicity was inconclusive: -33.8% [cytotoxic].

Q: Which Potency does the source give for CCn1c(=S)sc2c(=O)n(CC(=O)Nc3ccccc3)c(C)nc21 here?
A: The Potency was inconclusive: 23.1 µM [cytotoxic, partial curve, poor fit].

Q: For C/C=C(\C)CN1CCN(c2ccc(C)cc2)CC1, which “activity change, negative = cytotoxicity” value is on record?
A: The value was inactive: 14.9%.

Q: Which “activity change, negative = cytotoxicity” value does the source give for CSc1cccc(NC(=O)Cc2ccccc2[N+](=O)[O-])c1 here?
A: The value was inactive: -15.1%.

Q: Which Potency does the source give for COc1cccc2oc(-c3ccco3)cc(=O)c12 here?
A: The Potency was inconclusive: 16.4 µM [cytotoxic, single point].

Q: Which “activity change, negative = cytotoxicity” value does the source give for COCCCNc1ccn2nc(-c3cccc(OCc4ccccc4)c3)cc2n1 here?
A: Its value is inactive: 0%.

Q: Which Potency does the source give for COc1ccccc1OCCn1cc(/C=N/n2cnnc2)c2ccccc21 here?
A: The Potency was inconclusive: 9.2 µM [cytotoxic, partial curve].

Q: Which Potency does the source give for Cc1ccc(-c2nnn(CC(=O)N(Cc3ccccc3)C(C(=O)NC3CCCC3)c3ccncc3)n2)o1 (stereo not drawn) here?
A: Its Potency is active: 20.6 µM.

Q: Which Potency does the source give for O=C(NC1CC1)c1cccc(NC(=O)c2cnn(-c3ccccc3)n2)c1 here?
A: The Potency was active: 14.6 µM.

Q: With O=C(Nc1ccccc1-c1nnc(SCc2ccccc2Cl)o1)c1ccccc1 as the compound, how does the Potency read?
A: The Potency was active: 14.6 µM.

Q: For O=C(CCl)NCc1cc(-c2ccc(Cl)cc2)no1, which Potency is on record?
A: Its Potency is inconclusive: 20.6 µM [cytotoxic, single point].

Q: For O=[N+]([O-])c1nn(-c2ccc3c(c2)OCCO3)n(O)c1=NCc1ccccc1Cl, which Potency is on record?
A: Its Potency is inconclusive: 16.4 µM [cytotoxic, partial curve].

Q: For CCc1nc(N2CCN(C(=O)CCl)CC2)c2c3c(sc2n1)CC(C)CC3 (stereo not drawn), which Potency is on record?
A: The Potency was inconclusive: 29.1 µM [cytotoxic, single point].

Q: Which “activity change, negative = cytotoxicity” value does the source give for Cc1ccc(N2C(=O)C3C4C=CC(CNC(=S)N5CCN(c6ccccc6)CC5)(O4)C3C2=O)cc1 (stereo not drawn) here?
A: The value was inactive: -17.1%.

Q: For CCOC(=O)N1CCN(c2c(-c3ccccc3)c3cc(Cl)ccc3[nH]c2=O)CC1, which Potency is on record?
A: Its Potency is active: 9.2 µM.

Q: For CCOc1ccc(OCC)c(Nc2cc(C)nc3nc(-c4ccco4)nn23)c1, which “activity change, negative = cytotoxicity” value is on record?
A: Its value is inactive: -22.3%.

Q: For O=c1c(C(c2nnnn2C2CCCCC2)N2CCCCC2)coc2ccc(Cl)cc12 (stereo not drawn), which Potency is on record?
A: Its Potency is inconclusive: 29.1 µM [cytotoxic, single point].

Q: For Cc1ccc(CNc2ccc(-c3nc(-c4ccccn4)no3)cc2[N+](=O)[O-])cc1, which Potency is on record?
A: Its Potency is inconclusive: 29.1 µM [rising, single point].

Q: Which “activity change, negative = cytotoxicity” value does the source give for COC(=O)c1c(C)[nH]c(C(=O)OC(C)C(=O)NC2CCCCC2C)c1C (stereo not drawn) here?
A: The value was inactive: -20.9%.

Q: Which “activity change, negative = cytotoxicity” value does the source give for Cc1cc(C)c2cc(C(=O)N3CCN(c4ncccc4C(F)(F)F)CC3)[nH]c2c1 here?
A: The value was inactive: -20.8%.

Q: Which “activity change, negative = cytotoxicity” value does the source give for O=C(Nc1nccs1)c1ccc2c(c1)OCO2 here?
A: Its value is inactive: 11.3%.

Q: With CCCNC(=O)COC(=O)c1ccc(S(=O)(=O)N2CCCC2)cc1 as the compound, how does the Potency read?
A: The Potency was inconclusive: 20.6 µM [rising, single point].

Q: With CNc1cncc(-c2cc(OC)ccc2OC)n1 as the compound, how does the “activity change, negative = cytotoxicity” value read?
A: Its value is inactive: -1.12%.

Q: With O=C(Nc1cc(S(=O)(=O)N2CCCCC2)ccc1N1CCCCC1)c1ccncc1 as the compound, how does the Potency read?
A: The Potency was inconclusive: 7.31 µM [cytotoxic, partial curve].

Q: With CCOC(=O)/C(C#N)=N/Nc1c(C)n(C)n(-c2ccccc2)c1=O as the compound, how does the “activity change, negative = cytotoxicity” value read?
A: The value was inactive: -16.7%.

Q: Which “activity change, negative = cytotoxicity” value does the source give for COc1cc(C(=O)NCC(=O)N/N=C/c2c(C)[nH]c3ccccc23)cc(OC)c1OC here?
A: The value was inactive: 16.5%.

Q: Which Potency does the source give for COCCNCCCOc1ccc(C(C)(C)c2ccccc2)cc1 here?
A: The Potency was inconclusive: 16.4 µM [cytotoxic, single point].

Q: For COc1ccccc1Nc1nc(NCc2ccco2)c2ccccc2n1, which Potency is on record?
A: The Potency was inconclusive: 10.3 µM [cytotoxic, partial curve, poor fit].
